Drug screen on melanoma cell lines: apoptosis marker

From a melanoma drug combination screen (doi:10.1371/journal.pone.0140310); values rounded.

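Human melanoma cells were exposed to a pair of drugs for 72 h in 1,536-well plates and read by automated microscopy after fixing and staining. Values are the share of nuclei positive for cleaved PARP as a percentage of the same share in the DMSO control: 100 is the control level, higher means more apoptosis. Concentrations were fixed for each drug; these are the higher of two levels. No replicate spread is given; individual values may be noisy. The marker varies much from line to line, for technical or biological reasons.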
Only some of the drugs and lines screened are listed, without regard to their results.

All values are for the listed drug together with bexarotene (10000 nM): C=C(c1ccc(C(=O)O)cc1)c1cc2c(cc1C)C(C)(C)CCC2(C)C

| # | Second drug | IPC-298 |
|---|---|---|
| 1 | Cn1nnc2c(C(N)=O)ncn2c1=O at 10000 nM | 84.4 |
| 2 | c1cc(-c2cnn3cc(-c4ccc(OCCN5CCCCC5)cc4)cnc23)ccn1 at 2000 nM | 141 |
| 3 | C[C@]1(O)C[C@@H](c2nc(-c3ccc4ccc(-c5ccccc5)nc4c3)c3c(N)nccn32)C1 at 2000 nM | 60.8 |
| 4 | O=C(Nc1ccccc1)c1cc([N+](=O)[O-])ccc1Cl at 10000 nM | 75.3 |
| 5 | COc1cc([C@@H]2c3cc4c(cc3[C@@H](O[C@@H]3O[C@@H]5CO[C@@H](C)O[C@H]5[C@H](O)[C@H]3O)[C@H]3COC(=O)[C@H]23)OCO4)cc(OC)c1O at 100 nM | 150 |
| 6 | O=C(Nc1cccc(Cl)c1)Nc1ncc(CCNc2ncnc3ccsc23)s1 at 4 nM | 93.5 |
| 7 | Nc1nc(F)nc2c1ncn2[C@@H]1O[C@H](CO)[C@@H](O)[C@@H]1O at 1000 nM | 157 |
| 8 | Cn1cc(C2=C(c3cn(C4CCN(Cc5ccccn5)CC4)c4ccccc34)C(=O)NC2=O)c2ccccc21 at 4000 nM | 42.8 |
| 9 | COC(=O)c1sccc1S(=O)(=O)Nc1ccc(Nc2ccccc2)cc1OC at 5000 nM | 150 |
| 10 | NCC(=O)Nc1ccc(-n2nc(C(F)(F)F)cc2-c2ccc3c(ccc4ccccc43)c2)cc1 at 5000 nM | 74.7 |
| 11 | Cn1c(Nc2ccc(C(F)(F)F)cc2)nc2cc(Oc3ccnc(-c4ncc(C(F)(F)F)[nH]4)c3)ccc21 at 400 nM | 268 |
| 12 | CN1CCN(c2ccc3nc(-c4c(N)c5c(F)cccc5[nH]c4=O)[nH]c3c2)CC1 at 500 nM | 139 |
| 13 | CCN(CC)CCNC(=O)c1c(C)[nH]c(/C=C2\C(=O)Nc3ccc(F)cc32)c1C at 2000 nM | 69.0 |
| 14 | CN(C)S(=O)(=O)c1ccc2c(c1)/C(=C/c1cc3c([nH]1)CCCC3)C(=O)N2 at 2000 nM | 80.5 |
| 15 | CC(C)CCN1c2nc(Nc3cc(F)c(O)c(F)c3)ncc2N(C)C(=O)C1C (stereo unspecified) at 1000 nM | 117 |
| 16 | OCCn1cc(-c2cnc3nnn(Cc4ccc5ncccc5c4)c3n2)cn1 at 5000 nM | 244 |
| 17 | CS(=O)(=O)c1ccc(C(=O)Nc2ccc(Cl)c(-c3ccccn3)c2)c(Cl)c1 at 5000 nM | 176 |
| 18 | Cc1cn(-c2cc(NC(=O)c3ccc(C)c(Nc4nccc(-c5cccnc5)n4)c3)cc(C(F)(F)F)c2)cn1 at 1000 nM | 150 |